At least one structure is not confirmed: it was looked up by name or label, or the drawing left a doubt.
Columns and labels:
[1] = tested on: Tg2576 AD mice; test: Hippocampal neuronal cell bodies by direct binding assay with [125I]-labeled anti-NeuN antibody, Tg2576 mice subjected to CUMS; assay type: in vivo, mouse; conditions: 15-month-old Tg2576 mice, 3 months of CUMS with treatment, vs untreated stressed controls
Source text: (§1) For a genetic model of familial AD (FAD), Tg2576 mice (Taconic Biosciences, Rensselaer, N.Y., USA) were used with neuron-specific overexpression of human APPSwe, i.e the Swedish mutation of APP695 isolated from a Swedish family with FAD featuring the double mutation K670N/M671L (Hsiao et al., Science 274, 99-103 (1996)). As a genetic model of tauopathy, the Tg-TauP301L mice (Model 2508, Taconic Biosciences, Rensselaer, N.Y., USA) with neuron-specific expression of the most common FTDP-17 (frontotemporal dementia and parkinsonism linked to chromosome 17) mutation (Lewis et al., Nature Genetics 25, 402-405 (2000)) were used. […]
Neuronal cell loss and hyperphosphorylated PHF Tau were determined in hippocampi of 15 months-old Tg2576 mice, which were treated without or with Compound-1 and Compound-4 for three months during the neurodegeneration-enhancing CUMS (chronic unpredictable mild stress) protocol. Neuronal cell loss was determined with crude homogenates of dissected hippocampi by direct binding assay with the neuron-specific [125]-labeled anti-NeuN antibody (MAB377, clone A60, EMD Millipore, Merck KGaA, Darmstadt, Germany). Similarly, the neuronal cell loss-causing PHF tau hyperphosphorylation was quantified with [125]-labeled AT8 antibody. […]

[2] = tested on: rats; test: Appetite of rats on repeated once daily oral dosing; assay type: in vivo, rat; conditions: as early as one week after repeated once daily oral dosing of 50 mg/kg and 25 mg/kg
[3] = tested on: Tg-TauP301L mice; test: Hippocampal PHF Tau hyperphosphorylation (AT8) in Tg-TauP301L model of tauopathy; assay type: in vivo, mouse; conditions: 12 months-old Tg-TauP301L mice treated for 6 months
Source text: as §1, with “used. To enhance neurodegeneration and neuronal loss, the CUMS (chronic unpredictable mild stress) protocol was performed with male 12 months-old Tg2576 mice for 3 months essentially as described (AbdAlla et al., J. Biol. Chem. 284, 6554-6565 (2009); AbdAlla et al., J. Biol. Chem. 284, 6566-6574 (2009)).” for “used.”
Similarly, hyperphosphorylated Tau was detected with AT8 antibody on paraffin-embedded brain sections from 12 months-old Tg-TauP301L mice (Model 2508, Taconic Biosciences, Rensselaer, N.Y., USA) without and with treatment with Compound-1 and Compound-4 for 6 months. […]

For `c1cc(-c2ccc3c(c2)OCO3)ncn1` [Compound-4, 4-(1,3-benzodioxol-5-yl)pyrimidine], the “hippocampal neuronal loss (anti-NeuN antibody binding)” value [1] was “significantly retarded the loss of hippocampal neurons”, the appetite [2] was “appetite was increased” and the “hippocampal content of hyperphosphorylated PHF-Tau (quantitative, [125I]-AT8 binding)” value [3] was “significantly decreased hippocampal content of hyperphosphorylated PHF-Tau”. For the same compound, the “PHF Tau hyperphosphorylation in hippocampal CA3 area (immunohistology)” value ([3]; 8 mg/kg/d in drinking water) was “largely absent”.

Source: patent US20210015793A1, “COMPOUNDS FOR TREATING CNS- AND NEURODEGENERATIVE DISEASES” (ETH ZURICH, priority 2018, published 2021)
